Test results as given in paper PMC3579733.

Key:
Experiment in all cases: affinity purification with mass spectrometry; one-step and two-step bait fishing taken together (final data set; both methods applied to all baits); the place does not tell which of the two gave the result
[1] = target: T1, CheA (Halobacterium salinarum R1 (DSM 671)) (UniProt B0R4J9)
T1 sequence: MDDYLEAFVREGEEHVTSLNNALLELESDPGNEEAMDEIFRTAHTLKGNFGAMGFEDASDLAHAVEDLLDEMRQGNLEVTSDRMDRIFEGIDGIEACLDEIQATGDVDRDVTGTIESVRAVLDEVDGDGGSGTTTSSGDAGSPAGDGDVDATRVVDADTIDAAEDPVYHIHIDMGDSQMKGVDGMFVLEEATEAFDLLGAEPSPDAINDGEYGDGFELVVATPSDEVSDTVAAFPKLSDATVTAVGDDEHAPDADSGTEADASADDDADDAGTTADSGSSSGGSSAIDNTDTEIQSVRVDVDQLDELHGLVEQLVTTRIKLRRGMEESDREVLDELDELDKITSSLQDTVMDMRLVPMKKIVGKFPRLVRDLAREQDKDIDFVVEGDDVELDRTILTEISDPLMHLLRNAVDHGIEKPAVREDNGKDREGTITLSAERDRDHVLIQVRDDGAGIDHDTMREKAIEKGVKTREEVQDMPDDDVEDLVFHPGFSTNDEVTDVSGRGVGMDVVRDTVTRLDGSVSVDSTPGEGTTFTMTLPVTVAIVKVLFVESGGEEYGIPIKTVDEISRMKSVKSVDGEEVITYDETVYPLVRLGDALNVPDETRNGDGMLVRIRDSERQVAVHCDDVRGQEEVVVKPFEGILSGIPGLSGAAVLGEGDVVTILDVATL

[2] = target: T2, CheW2 (Halobacterium salinarum R1 (DSM 671)) (UniProt Q9HQY8)
T2 sequence: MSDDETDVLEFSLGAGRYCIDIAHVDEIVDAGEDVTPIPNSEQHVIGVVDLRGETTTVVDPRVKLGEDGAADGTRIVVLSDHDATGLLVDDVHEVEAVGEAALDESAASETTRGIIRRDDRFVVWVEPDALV

[3] = target: CheC3 (Halobacterium salinarum R1 (DSM 671))
[4] = target: T3, CheW1 (Halobacterium salinarum R1 (DSM 671)) (UniProt Q9HQW5)
T3 sequence: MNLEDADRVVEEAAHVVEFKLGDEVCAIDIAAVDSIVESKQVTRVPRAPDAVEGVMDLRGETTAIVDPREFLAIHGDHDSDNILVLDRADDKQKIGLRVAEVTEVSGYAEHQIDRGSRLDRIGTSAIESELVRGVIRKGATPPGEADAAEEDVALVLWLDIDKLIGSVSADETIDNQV

[5] = target: T4, CheC1 (Halobacterium salinarum R1 (DSM 671)) (UniProt B0R4J8)
T4 sequence: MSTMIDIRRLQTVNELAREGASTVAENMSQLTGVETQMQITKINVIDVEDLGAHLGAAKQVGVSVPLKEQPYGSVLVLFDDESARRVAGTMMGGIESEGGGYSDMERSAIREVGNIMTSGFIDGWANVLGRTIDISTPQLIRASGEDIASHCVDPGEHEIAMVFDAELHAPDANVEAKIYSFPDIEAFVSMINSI

[6] = target: T5, CheY (Halobacterium salinarum R1 (DSM 671)) (UniProt B0R4K1)
T5 sequence: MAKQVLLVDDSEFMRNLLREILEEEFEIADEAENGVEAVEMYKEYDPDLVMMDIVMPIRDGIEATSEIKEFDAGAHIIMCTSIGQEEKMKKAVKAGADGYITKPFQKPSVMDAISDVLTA

[7] = target: T6, CheR (Halobacterium salinarum R1 (DSM 671)) (UniProt B0R4J5)
T6 sequence: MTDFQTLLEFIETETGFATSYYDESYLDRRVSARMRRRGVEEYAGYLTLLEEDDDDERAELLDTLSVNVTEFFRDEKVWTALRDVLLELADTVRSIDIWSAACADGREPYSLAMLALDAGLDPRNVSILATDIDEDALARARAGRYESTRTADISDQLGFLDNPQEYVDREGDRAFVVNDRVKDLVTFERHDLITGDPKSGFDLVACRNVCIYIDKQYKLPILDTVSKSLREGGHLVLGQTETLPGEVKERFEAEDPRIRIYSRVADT

[8] = target: T7, CheB (Halobacterium salinarum R1 (DSM 671)) (UniProt B0R4K0)
T7 sequence: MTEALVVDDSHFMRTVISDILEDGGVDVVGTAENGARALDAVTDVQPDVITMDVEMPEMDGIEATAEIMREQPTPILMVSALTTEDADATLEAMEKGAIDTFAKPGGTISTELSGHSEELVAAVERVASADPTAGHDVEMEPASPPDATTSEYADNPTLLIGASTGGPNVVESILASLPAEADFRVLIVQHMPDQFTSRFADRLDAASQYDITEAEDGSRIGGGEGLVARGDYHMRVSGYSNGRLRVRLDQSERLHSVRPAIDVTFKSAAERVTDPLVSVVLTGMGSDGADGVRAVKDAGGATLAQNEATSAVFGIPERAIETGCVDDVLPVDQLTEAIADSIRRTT

[9] = target: OE4643R (Halobacterium salinarum R1 (DSM 671))
[10] = target: T8, CheC2 (Halobacterium salinarum R1 (DSM 671)) (UniProt Q9HPJ6)
T8 sequence: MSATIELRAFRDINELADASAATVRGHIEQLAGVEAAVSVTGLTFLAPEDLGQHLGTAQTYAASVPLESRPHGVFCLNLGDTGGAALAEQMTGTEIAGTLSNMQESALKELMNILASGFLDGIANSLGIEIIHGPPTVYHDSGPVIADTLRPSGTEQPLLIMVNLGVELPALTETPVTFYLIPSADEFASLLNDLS

binding [1]: no binding
binding [2]: no binding
binding [3]: no binding
binding [4]: no binding
binding [5]: no binding
binding [6]: no binding
binding [7]: no binding
binding [8]: no binding
binding [9]: no binding
binding [10]: no binding
B1: Htr7 (receptor, UniProt B0R6A6 1-545)
chain: MSGAAVFVDAVVAPLGDAVGAIGFGAAAALGYRNYRDTDAEAAFWMAFTFASLLGVTWTVSLMLEKAGVATQIFNLATGPLMATTVAVFAIGGTATLAIVEDMEALVEERAQRRQEAEEERAEAERAREKAEQKQAEAERQTAEAESAKQDARERSAEIEQLAADLESQATEVGATLEAASDGDLTARVDATTDNAEIAEVATVVNDMLTTMERTIDEIQGFSTNVTTASREATAGAKEIQDASQTVSESVQEIAAGTDDQREQLESVAEEMDSYSATVEEVAATAQSVADTAADTTDVATAGKQTAEDAIDAIDAVQETMQTTVANVDALEDLTTEIDDIAELISDIAEQTNMLALNANIEAARAGSGGGSNGDGFAVVADEVKELATESQRSAKDIAELIEEVQSQTATTVEEIRVAEQRVNDGAAAVEETVDAFGAVTENIQETTDGVQEISQAMDEQAQRSERVVSSVDDIATISQATADRAENVSAASEEQTASITEVTSSLQSLAAQADTLEDRLNEFRTEATGTAHGEATDAPAGQSD

No constants are given. Whether binding was seen depends on the method and setting. Binding seen in cells or lysates may run through a third protein. A yes stands for co-enrichment or nearness to the bait. Other partners may have been found. A no says only that the protein was not detected with the bait.
